Our source for the binding values is article PMC11620747.

By UniProt entry, the sequences of proteins in these tests, tags left out. Where a name states a change or a piece, a line headed by the entry shows the natural chain unless it says otherwise.
UniProt Q8IKF6: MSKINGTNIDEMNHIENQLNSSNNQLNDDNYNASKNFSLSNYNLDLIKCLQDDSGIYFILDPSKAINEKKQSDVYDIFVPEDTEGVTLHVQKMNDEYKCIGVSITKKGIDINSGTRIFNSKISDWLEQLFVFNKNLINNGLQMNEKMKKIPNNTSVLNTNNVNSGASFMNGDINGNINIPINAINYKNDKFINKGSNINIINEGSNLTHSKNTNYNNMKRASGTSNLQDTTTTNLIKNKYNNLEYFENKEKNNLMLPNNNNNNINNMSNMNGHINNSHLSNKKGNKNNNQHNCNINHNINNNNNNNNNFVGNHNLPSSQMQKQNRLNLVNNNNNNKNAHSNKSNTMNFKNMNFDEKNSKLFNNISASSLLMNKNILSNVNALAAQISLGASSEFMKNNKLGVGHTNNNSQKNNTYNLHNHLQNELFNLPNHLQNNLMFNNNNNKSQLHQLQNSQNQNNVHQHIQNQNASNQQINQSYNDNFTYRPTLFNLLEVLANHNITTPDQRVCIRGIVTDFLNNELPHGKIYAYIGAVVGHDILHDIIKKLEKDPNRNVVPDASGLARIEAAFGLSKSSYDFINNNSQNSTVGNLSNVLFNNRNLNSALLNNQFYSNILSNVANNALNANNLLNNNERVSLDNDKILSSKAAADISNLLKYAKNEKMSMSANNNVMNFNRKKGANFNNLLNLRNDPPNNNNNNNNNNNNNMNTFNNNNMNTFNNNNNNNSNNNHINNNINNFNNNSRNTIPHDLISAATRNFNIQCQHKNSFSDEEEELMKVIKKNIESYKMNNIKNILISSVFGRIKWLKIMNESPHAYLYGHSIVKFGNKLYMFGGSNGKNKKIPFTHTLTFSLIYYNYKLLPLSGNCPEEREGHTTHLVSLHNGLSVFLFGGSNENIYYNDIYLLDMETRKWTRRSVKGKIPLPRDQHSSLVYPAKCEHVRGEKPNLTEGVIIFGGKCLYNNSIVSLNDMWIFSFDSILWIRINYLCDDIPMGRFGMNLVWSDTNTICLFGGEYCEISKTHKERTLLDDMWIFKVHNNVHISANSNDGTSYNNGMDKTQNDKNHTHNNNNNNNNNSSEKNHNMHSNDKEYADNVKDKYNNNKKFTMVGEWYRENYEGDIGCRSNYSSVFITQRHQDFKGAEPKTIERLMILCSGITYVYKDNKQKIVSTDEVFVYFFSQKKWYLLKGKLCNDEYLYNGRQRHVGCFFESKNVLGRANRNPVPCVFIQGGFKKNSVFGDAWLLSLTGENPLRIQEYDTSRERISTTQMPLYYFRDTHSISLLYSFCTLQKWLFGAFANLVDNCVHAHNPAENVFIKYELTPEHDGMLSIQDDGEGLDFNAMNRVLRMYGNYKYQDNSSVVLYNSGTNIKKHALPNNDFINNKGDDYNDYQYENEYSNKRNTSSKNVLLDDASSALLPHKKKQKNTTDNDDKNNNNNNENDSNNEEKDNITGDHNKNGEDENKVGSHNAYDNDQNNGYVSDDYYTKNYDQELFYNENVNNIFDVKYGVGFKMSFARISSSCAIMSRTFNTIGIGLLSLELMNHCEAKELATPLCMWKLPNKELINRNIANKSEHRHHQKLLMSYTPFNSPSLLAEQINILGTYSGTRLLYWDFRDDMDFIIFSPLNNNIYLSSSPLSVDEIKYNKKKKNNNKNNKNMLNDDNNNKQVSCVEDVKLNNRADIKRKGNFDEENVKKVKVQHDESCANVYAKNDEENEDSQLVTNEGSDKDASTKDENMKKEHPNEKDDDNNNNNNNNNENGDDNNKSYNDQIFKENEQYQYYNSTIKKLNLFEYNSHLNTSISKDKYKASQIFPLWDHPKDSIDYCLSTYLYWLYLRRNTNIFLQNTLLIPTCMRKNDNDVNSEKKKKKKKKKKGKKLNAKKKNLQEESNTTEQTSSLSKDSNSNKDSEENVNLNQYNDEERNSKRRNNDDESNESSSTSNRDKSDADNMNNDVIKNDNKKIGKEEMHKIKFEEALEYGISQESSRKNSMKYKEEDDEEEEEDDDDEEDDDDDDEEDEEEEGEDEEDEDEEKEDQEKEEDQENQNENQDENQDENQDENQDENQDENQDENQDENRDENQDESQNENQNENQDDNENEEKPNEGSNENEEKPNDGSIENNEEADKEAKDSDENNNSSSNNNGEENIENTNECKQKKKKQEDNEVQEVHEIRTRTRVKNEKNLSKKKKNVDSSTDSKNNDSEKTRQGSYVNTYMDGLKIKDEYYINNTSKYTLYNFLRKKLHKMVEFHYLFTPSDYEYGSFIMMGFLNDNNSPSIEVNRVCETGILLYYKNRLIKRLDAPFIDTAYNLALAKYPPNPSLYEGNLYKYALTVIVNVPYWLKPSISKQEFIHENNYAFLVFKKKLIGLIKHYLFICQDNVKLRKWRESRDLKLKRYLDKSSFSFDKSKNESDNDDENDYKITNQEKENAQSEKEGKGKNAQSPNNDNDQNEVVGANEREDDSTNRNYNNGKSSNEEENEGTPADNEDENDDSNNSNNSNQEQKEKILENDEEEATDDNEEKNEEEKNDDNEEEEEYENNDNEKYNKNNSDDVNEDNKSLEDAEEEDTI
UniProt Q8IBB0: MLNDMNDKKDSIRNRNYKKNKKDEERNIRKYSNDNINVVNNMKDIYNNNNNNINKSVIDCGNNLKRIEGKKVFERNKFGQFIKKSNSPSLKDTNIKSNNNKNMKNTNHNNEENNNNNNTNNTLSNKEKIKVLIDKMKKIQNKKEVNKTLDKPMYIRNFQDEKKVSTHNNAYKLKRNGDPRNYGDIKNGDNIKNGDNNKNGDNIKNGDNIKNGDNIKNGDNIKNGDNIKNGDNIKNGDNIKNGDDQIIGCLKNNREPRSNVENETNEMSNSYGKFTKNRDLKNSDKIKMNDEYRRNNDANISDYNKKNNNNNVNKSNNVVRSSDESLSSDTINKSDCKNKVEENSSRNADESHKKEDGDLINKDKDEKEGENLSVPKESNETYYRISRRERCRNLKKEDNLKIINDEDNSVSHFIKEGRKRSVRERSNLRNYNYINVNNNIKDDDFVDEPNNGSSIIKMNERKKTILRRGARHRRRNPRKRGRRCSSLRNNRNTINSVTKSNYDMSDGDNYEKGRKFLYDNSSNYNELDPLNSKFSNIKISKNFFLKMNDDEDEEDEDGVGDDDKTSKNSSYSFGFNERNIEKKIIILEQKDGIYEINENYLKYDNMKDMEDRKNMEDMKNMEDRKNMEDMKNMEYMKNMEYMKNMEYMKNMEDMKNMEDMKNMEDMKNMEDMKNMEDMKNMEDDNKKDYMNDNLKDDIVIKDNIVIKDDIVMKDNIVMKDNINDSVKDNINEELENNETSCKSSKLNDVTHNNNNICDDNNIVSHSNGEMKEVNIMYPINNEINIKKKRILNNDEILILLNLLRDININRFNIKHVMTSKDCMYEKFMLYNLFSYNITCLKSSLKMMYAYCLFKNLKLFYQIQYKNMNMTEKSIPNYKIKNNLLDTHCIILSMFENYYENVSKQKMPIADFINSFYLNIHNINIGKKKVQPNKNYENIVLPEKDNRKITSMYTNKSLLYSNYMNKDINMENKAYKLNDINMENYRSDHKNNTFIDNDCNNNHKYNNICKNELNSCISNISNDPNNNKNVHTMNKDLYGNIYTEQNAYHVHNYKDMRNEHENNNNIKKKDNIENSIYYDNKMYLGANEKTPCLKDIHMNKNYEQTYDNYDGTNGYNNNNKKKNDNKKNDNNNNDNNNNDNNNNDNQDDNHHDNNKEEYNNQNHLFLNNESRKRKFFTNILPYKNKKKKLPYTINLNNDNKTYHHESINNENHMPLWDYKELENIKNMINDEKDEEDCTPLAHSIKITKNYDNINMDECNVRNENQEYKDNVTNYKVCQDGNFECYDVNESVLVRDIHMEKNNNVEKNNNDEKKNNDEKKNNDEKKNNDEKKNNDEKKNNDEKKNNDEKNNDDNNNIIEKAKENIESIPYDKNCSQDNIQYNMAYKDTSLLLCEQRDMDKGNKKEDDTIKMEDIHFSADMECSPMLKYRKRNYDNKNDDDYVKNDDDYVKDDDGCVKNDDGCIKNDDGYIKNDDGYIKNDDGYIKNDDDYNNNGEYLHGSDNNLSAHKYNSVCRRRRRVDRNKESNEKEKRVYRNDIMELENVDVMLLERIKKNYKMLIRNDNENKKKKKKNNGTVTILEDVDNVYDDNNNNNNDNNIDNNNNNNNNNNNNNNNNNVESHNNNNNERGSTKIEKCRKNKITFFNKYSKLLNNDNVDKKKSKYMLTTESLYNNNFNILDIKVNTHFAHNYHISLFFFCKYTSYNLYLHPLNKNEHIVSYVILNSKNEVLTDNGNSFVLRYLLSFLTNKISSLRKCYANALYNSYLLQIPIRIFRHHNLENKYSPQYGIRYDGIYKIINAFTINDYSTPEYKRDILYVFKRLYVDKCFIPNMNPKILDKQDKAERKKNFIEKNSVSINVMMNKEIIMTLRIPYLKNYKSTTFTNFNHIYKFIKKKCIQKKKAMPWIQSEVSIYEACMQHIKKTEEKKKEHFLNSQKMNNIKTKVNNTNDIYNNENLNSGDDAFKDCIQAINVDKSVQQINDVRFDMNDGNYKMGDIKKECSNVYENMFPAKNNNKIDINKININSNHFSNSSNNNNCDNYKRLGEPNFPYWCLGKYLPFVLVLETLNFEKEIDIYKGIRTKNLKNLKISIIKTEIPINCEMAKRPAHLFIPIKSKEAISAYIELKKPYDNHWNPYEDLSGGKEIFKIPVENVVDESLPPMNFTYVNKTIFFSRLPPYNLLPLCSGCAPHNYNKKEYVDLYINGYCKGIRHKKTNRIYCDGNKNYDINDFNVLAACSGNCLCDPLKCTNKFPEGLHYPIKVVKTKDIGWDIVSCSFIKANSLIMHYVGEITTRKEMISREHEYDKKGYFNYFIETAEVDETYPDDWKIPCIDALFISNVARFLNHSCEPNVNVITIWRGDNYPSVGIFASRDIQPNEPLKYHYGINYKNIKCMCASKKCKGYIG
UniProt C6KSV9: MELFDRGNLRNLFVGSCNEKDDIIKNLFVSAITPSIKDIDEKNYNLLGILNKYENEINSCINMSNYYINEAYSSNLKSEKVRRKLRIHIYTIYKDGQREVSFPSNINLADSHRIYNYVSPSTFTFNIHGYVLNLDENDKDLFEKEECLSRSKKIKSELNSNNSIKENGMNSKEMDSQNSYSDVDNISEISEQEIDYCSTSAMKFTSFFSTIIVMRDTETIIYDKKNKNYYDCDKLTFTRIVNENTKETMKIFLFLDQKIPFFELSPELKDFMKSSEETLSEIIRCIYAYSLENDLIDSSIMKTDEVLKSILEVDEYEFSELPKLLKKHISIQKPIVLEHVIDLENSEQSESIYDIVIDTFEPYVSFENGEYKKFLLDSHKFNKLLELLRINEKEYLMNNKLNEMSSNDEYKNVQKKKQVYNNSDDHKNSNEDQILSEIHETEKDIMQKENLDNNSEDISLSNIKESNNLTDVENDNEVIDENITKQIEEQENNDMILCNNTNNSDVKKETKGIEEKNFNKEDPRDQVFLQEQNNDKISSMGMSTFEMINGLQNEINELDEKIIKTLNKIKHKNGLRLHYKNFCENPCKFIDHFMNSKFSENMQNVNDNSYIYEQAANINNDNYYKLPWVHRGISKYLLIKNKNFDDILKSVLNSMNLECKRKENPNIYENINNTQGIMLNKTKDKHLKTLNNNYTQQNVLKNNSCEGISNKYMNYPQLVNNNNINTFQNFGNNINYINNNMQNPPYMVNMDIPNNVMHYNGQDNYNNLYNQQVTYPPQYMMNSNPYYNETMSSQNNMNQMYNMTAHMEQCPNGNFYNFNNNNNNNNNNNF

These are yes or no findings as the source states them, for the method shown. In cells and extracts the contact can be indirect. These calls come from enrichment with a bait or labelling near it, and not all partners need be listed.

In the test the target is PfMORC-HA (Plasmodium falciparum Microrchidia protein, 3xHA-tagged) (P. falciparum) (UniProt Q8IKF6). Kind of test: affinity purification with mass spectrometry; anti-HA immunoprecipitation (Dynabeads Protein A) from lysate of mid- to late-stage asexual PfMORC-HA parasites, parental line as control; IP buffer 50 mM Tris-HCl pH 7.5, 300 mM NaCl, 0.5 mM EDTA, 0.5 mM EGTA, 0.5% Triton X-100; 4 °C; MudPIT; QPROT log2 FC ≥2 and Z statistic >5.
As for SET3 (from UniProt Q8IBB0) (enzyme), the binding entry was “binds”.

Regarding “N-acetyltransferase (PF3D7_1020700) (from UniProt Q8IJJ5) (enzyme)”, the binding entry is “binds”.

For the substance PHD2 (from UniProt Q8ILC9), the binding entry was “binds”.

Take AP2-P (from UniProt Q8IIS4): the binding result is “binds”.

For the substance “SWIB/MDM2 domain-containing protein (from UniProt C6KSV9)”, the binding entry is recorded as “binds”.

On to BDP3 (from UniProt Q8I240), for which the binding entry is “binds”.
